PubChem BioAssay AID686943, Drosophila RNAi Screening Center | 2013
Test: 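Fly genes whose loss alters ERK activation after insulin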 (primary screen). Cells: Drosophila S2R+ haemocyte-like cells expressing YFP-tagged ERK (Rolled). Knock-down reagent: long dsRNA against Drosophila genes. Challenge: insulin stimulation versus unstimulated cells; dose and duration not given. Measured: 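Antibody staining for doubly phosphorylated ERK divided by ERK-YFP signal, as plate z-scores, in insulin-treated and untreated cells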. Scale: replicate 1, z-score of dpERK with insulin and replicate 2, z-score of dpERK with insulin: higher = more active ERK per ERK-YFP after insulin; replicate 1, z-score of dpERK under basal conditions: higher = more basal active ERK per ERK-YFP; replicate 1, z-score of ERK-YFP with insulin: higher = more YFP-tagged ERK signal.
The screen tested about 23,000 reagents; this is an unselected part of those with a known target gene and a result. 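Extra replicates exist only for a retested subset of genes; insulin dose and duration not given; both raised and lowered dpERK matter.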 The numbers tell different reagents against one gene apart. Names joined by + are all predicted targets of the reagent. No sequences are given here. Not stated in the record: the amount of reagent, the time to read-out.

| gene | dsRNA no. | replicate 1, z-score of dpERK with insulin | replicate 2, z-score of dpERK with insulin | replicate 1, z-score of dpERK under basal conditions | replicate 1, z-score of ERK-YFP with insulin |
| --- | --- | --- | --- | --- | --- |
| Aptx | 1 | -0.48 | 0.07 | 0.71 | 0.38 |
| loh | 1 | -0.65 | 0.28 | 0.08 | 0.87 |
| loh | 2 | 0.87 | 0.51 | -0.52 | -0.35 |
| CG14237 | 1 | 0.24 | -1.42 | 0.68 | 0.87 |
| CG10470 | 1 | -0.5 | -0.53 | 0.08 | 0.36 |
| CG18132 | 1 | -1.25 | -0.5 | -0.28 | 0.37 |
| CG17198 + CG17197 | 1 | 1 | -0.87 | 0.95 | 0.04 |
| CG17198 + CG17197 | 2 | 0.66 | -0.59 | -0.1 | 0.09 |
| RpS2 | 1 | -2.82 | -1.07 | -2.41 | -2.39 |
| CG9517 (retired record) | 1 | 0.48 | 0.19 | 0.32 | 0.07 |
| CG9517 (retired record) | 2 | 1.12 | 0.39 | -0.33 | -0.08 |
| Lcp65Ag3 | 1 | 0.47 | 0.93 | -0.29 | 0.13 |
| CG10165 | 1 | 0.02 | 0.08 | 0.47 | 0.25 |
| CG43074 | 1 | -0.67 | -0.94 | 0.69 | 0.42 |
| Ube4A | 1 | 0.48 | 1.63 | 0.27 | 0.07 |
| RPA2 | 1 | 0.11 | 0.01 | -1.13 | -0.33 |
| Pomp | 1 | -2.63 | -5.39 | -3.09 | 2.19 |
| Elp3 | 1 | -0.68 | -0.23 | 0 | -0.03 |
| SP2353 | 1 | -0.13 | 0.75 | -1.34 | 0.42 |
| zld | 1 | 0.97 | -0.92 | 1.78 | 0.43 |
| zld | 2 | -1.37 | -1.77 | -0.88 | -0.45 |
| Myt1 | 1 | 0.38 | -0.28 | 0.53 | 1.53 |
| CG2652 | 1 | 0.43 | 1.05 | -0.28 | 0.01 |
| CG2652 | 2 | -0.41 | -0.29 | 0.45 | 0.8 |
| CG14752 | 1 | 0.7 | 0.02 | 0.45 | -0.08 |
| Suv3 | 1 | -0.38 | -0.75 | -0.75 | 0.08 |
| CG14257 | 1 | 0.16 | 1.42 | 0.2 | -0.44 |
| Adck5 | 1 | -0.35 | -0.4 | -0.25 | 0.88 |
| CG31266 | 1 | -0.09 | 0.31 | -0.17 | 1.03 |
| CG34030 | 1 | 0.14 | -1.06 | -0.54 | -0.09 |
| ago | 1 | 2.23 | 6.07 | 1.75 | -4.12 |
| Had1 | 1 | 1.49 | -0.12 | 0.11 | -0.44 |
| CG34320 (retired record) | 1 | 0.46 | 0.29 | 0.25 | 0.32 |
| mav | 1 | -0.26 | 0.71 | -0.52 | 0.31 |
| CYLD | 1 | -0.88 | 0.47 | -0.99 | 0.89 |
| CaMKII | 1 | -0.06 | -2.04 | 0.13 | 0.16 |
| MCU | 1 | 0.24 | -0.12 | – | -0.15 |
| Rpn9 | 1 | -3.54 | -1.53 | 0.01 | -0.31 |
| Axud1 | 1 | 0.09 | 0.15 | 0.69 | 0.48 |
| CG15082 | 1 | -1.08 | -0.4 | 2.11 | 0.21 |
| RpL4 | 1 | -3.19 | 0.1 | 5.36 | -3.11 |
| NUCB1 | 1 | 2.71 | -0.31 | -0.96 | -0.15 |
| CG15468 | 1 | 0.59 | 0.38 | -0.23 | 0.08 |
| Oatp26F | 1 | 0.46 | 0.27 | 0.96 | -0.46 |
| Oatp26F | 2 | 0.05 | -0.36 | -0.02 | -0.78 |
| Oatp26F | 3 | 0.42 | 0.49 | -0.3 | -0.58 |
| CG43193 (retired record) | 1 | 1.37 | 1.54 | -0.06 | -0.3 |
| whd | 1 | 0.27 | -0.05 | -0.14 | -0.18 |
| CG30148 | 1 | 0.35 | 0.39 | 1.23 | -0.05 |
| mthl5 | 1 | 0.94 | 0.05 | -0.29 | -0.49 |
| CG13443 | 1 | 0.23 | -0.59 | 1.27 | 0.63 |
| Nin | 1 | -0.83 | 0.14 | -0.32 | 0.22 |
| CG17732 | 1 | 0.53 | 0.52 | 2.31 | -0.13 |
| CG12069 | 1 | 0.39 | -0.21 | 0.92 | 0.26 |
| RpLP2 | 1 | -2.45 | -1.02 | -3.28 | -2.93 |
| CG3306 | 1 | 0.05 | 0.55 | -1.27 | 0.36 |
| CG4607 | 1 | -0.38 | -0.25 | 0.31 | 1.47 |
| RpL27A | 1 | -2.51 | -1.81 | -1.05 | -2.48 |
| GNBP-like3 | 1 | 0.48 | -0.16 | -0.29 | -0.14 |
| Fign | 1 | -0.11 | -0.03 | 0.32 | 0.74 |
| CG17019 | 1 | -0.23 | -0.46 | -0.54 | 0.61 |
| ProRS-m | 1 | 0.82 | 0.47 | -0.66 | 0.78 |
| CG4972 | 1 | 0.42 | 0.9 | 0.51 | 0.44 |
| CG3819 | 1 | 0.31 | 0.02 | -1.39 | -0.28 |
| CAH8 | 1 | -0.01 | 0.91 | -0.07 | 0.15 |
| LTV1 | 1 | -0.07 | -0.63 | -0.24 | -0.68 |
| CG13590 | 1 | 0.76 | 1.17 | -0.75 | -0.42 |
| CG12868 | 1 | 0.08 | 0.16 | 1.65 | -0.15 |
| pug | 1 | -0.72 | -0.57 | -0.93 | 0.13 |
| CG42541 | 1 | -0.06 | -0.92 | 0.42 | 0.64 |
| CG42541 | 2 | -4.22 | -2.17 | -3.63 | -4.72 |
| CG42541 | 3 | 0.06 | 1.06 | 0.58 | 0 |
| CG13857 | 1 | 0.38 | 0.38 | -0.31 | 0.13 |

Ordered by “replicate 2, z-score of dpERK with insulin” (highest first): 7 of the entries above
| gene | dsRNA no. | replicate 1, z-score of dpERK with insulin | replicate 2, z-score of dpERK with insulin | replicate 1, z-score of dpERK under basal conditions | replicate 1, z-score of ERK-YFP with insulin |
| --- | --- | --- | --- | --- | --- |
| CG14257 | 1 | 0.16 | 1.42 | 0.2 | -0.44 |
| CG2652 | 1 | 0.43 | 1.05 | -0.28 | 0.01 |
| CG31266 | 1 | -0.09 | 0.31 | -0.17 | 1.03 |
| CG14752 | 1 | 0.7 | 0.02 | 0.45 | -0.08 |
| CG2652 | 2 | -0.41 | -0.29 | 0.45 | 0.8 |
| Adck5 | 1 | -0.35 | -0.4 | -0.25 | 0.88 |
| Suv3 | 1 | -0.38 | -0.75 | -0.75 | 0.08 |
